2 substances from patent publication US20060270591A1, “Androgen receptor coregulators” (priority 2002, published 2006) can be followed below.

Amino acid sequences for entries named in this document (tags omitted). A change or cut given only in a name is not applied to a line headed by its entry.
UniProt Q13772: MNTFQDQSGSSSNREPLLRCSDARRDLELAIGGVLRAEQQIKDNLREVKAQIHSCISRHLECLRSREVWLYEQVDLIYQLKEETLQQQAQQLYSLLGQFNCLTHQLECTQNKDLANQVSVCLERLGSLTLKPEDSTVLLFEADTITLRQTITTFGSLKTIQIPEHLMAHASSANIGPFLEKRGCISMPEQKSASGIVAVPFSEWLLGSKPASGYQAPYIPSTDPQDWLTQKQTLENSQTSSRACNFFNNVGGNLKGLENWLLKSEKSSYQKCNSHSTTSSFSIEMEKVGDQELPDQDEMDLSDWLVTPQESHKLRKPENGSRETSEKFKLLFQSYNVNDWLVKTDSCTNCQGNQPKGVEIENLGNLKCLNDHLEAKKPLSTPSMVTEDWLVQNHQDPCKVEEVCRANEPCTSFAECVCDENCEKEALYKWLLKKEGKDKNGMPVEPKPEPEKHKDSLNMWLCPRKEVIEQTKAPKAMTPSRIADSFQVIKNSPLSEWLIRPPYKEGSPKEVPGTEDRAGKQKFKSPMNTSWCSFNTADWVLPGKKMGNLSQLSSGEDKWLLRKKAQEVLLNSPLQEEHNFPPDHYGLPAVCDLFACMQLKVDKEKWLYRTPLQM
UniProt O95425: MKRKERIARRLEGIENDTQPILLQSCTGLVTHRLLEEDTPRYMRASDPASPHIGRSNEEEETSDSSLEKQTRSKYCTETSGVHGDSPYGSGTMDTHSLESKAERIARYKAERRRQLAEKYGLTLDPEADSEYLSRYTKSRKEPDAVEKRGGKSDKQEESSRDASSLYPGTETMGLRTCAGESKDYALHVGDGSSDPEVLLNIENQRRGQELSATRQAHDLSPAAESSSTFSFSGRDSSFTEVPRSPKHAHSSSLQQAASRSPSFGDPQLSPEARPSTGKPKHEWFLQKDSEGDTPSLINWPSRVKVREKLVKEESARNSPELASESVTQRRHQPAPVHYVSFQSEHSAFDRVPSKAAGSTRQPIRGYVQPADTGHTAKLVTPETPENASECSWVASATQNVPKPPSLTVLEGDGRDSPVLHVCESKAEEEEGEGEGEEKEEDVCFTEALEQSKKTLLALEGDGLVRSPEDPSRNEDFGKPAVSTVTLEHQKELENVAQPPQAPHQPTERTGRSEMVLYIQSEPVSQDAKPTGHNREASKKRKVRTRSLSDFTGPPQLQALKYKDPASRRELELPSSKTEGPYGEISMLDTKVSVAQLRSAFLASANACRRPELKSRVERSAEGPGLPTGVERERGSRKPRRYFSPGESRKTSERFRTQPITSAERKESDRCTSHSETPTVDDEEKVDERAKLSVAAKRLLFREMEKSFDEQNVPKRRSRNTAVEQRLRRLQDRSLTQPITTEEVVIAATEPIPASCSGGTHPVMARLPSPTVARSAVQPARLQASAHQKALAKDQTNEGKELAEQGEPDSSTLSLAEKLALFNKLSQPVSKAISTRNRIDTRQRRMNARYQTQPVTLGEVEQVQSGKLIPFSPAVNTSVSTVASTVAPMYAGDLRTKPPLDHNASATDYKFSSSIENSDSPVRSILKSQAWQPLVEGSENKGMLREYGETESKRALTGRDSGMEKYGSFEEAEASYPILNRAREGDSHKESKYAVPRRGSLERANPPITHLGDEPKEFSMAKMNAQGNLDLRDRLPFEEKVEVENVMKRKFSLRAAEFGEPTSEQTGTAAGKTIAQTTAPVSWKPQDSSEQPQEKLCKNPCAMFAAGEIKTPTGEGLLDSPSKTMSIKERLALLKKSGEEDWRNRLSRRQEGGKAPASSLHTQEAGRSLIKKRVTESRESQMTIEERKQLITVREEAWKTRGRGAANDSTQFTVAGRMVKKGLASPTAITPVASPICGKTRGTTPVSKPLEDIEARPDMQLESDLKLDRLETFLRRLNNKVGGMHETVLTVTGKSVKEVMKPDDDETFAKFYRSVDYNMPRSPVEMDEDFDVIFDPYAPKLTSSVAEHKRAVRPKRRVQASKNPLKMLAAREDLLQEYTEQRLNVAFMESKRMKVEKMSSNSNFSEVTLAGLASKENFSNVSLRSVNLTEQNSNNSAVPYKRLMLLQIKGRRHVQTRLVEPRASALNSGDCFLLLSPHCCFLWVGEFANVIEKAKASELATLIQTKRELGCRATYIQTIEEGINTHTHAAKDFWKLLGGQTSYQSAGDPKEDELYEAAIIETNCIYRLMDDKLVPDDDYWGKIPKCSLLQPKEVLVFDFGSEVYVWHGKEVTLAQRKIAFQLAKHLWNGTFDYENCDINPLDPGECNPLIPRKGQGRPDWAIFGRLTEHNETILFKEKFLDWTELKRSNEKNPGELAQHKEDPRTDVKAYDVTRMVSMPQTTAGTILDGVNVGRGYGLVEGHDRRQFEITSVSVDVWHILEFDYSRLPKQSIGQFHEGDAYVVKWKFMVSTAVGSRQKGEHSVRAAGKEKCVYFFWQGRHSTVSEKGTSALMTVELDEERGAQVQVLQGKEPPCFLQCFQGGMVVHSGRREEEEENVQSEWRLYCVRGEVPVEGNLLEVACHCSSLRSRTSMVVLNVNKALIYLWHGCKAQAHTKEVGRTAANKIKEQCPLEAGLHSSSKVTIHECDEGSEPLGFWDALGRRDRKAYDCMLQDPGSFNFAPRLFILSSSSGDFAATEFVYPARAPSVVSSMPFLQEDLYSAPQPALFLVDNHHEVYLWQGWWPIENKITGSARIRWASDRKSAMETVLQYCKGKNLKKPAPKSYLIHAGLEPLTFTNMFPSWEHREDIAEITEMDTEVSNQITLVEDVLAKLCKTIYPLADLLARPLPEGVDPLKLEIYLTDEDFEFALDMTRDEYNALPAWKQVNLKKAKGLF

No constants are given. Whether binding was seen depends on the method and setting. Some binding calls cover weakened binding; strength is not graded here.

Test [1] has as its target GAL4 DBD fused LBD of PPARγ (UniProt P04386). The test can be described thus: mammalian two-hybrid.
Test [2] has the same target. The test is described as follows: mammalian two-hybrid, DU145, 1 uM 15dJ2.
Test [3] concerns the target GAL4 DBD fused with C-terminal fragment (aa 595-918) of wild-type AR (human). The test is described as follows: yeast two-hybrid.
Test [4] shares this target. The test is described as follows: yeast two-hybrid, nutrition selection plates.

With “VP16 fused wild-type ARA70N (aa 1-401) (from UniProt Q13772 1-401)”, the binding result in test [1] and in test [2] was “binds” in each case.

Consider “pACTII-hSV(558-1788): Gal4 AD fused human supervillin a.a. 558-1788 (from UniProt O95425 984-2210)”, for which the binding entry in test [3] and in test [4] was “binds” in each case.
